# Assay: general procedure: Fmoc solid-phase peptide synthesis; Fmoc-Rink resin (4-(2',4'-dimethoxyphenyl-Fmoc-aminomethyl)-phenoxypolystyrene resin, Bachem D-2080; 0.47 mmol/g); HOBt (HOAt with DIPEA for Fmoc-Glu(2-phenylisopropyloxy)-OH)
# Settings: whole synthesis, hydrochloride
substance,measurement,setting,value
16-(tetrazol-5-yl)hexadecanoyl-Gly-Thr-GIn-His-Ser-Nle-c[Glu-Hyp-D-Phe-Arg-Trp-Lys]-NH2,final HPLC purity,"UV 214 nm, scale of the general procedure 0.10 mmol",100%
same,isolated mass,scale 0.10 mmol,27.8 mg
same,isolated yield,scale 0.10 mmol,16%

# — patent publication US20100022446 (published 2010)
